Measurements: PubChem BioAssay AID2685 (National Center for Advancing Translational Sciences (NCATS), 2010)
About 2,100 (0.66%) of roughly 320,000 compounds were called active. This list was built around the results that the source calls inconclusive (neither active nor inactive); the mix of calls is not that of the screen. Calls come from the whole dose curve; as a rule, active = well fitted inhibition curve with a large enough effect in the signal ratio, with a control signal flat (not every such curve was filed as active); inconclusive = small, poorly fitted or top-dose-only effect, or effect the other way, or a change in a side signal; inactive = flat fitted curve, though single readings scatter; the % refers to the signal ratio. Potencies beside an inconclusive call are fits to weak or partial responses and may not hold up.
% is set by controls: 0 for no effect and ±100 for the full control effect; potency is the fitted concentration of half-maximal effect.

Assay: qHTS Assay for Lipid Storage Modulators in Drosophila S3 Cells
Details: BODIPY lipid droplet fluorescence, 18-24 h, cells fed with added oleic acid; lipid storage change, negative = inhibition: at 46.1 µM (top of the series) unless noted
Method in brief: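 Laser-scanning cytometry quantifies lipid droplet accumulation (500–530 nm total intensity; droplet/cell object ratio) in oleic acid-fed (400 uM added) Drosophila S3 cells treated with a concentration series. 20 uM Triacsin C defined 100% inhibition.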
For `CCOC(=O)c1ccc(N2CCCCC2)c(NS(=O)(=O)c2cccc(C(F)(F)F)c2)c1`, the lipid storage change, negative = inhibition was inconclusive: 21.2%.
With `CCN1C(=O)C2(C(C#N)=C(N)Oc3c2c(C)nn3-c2ccccc2)c2ccccc21` (stereo not given) the lipid storage change, negative = inhibition was inconclusive: 6.23%.
With `COc1cc(C(=O)NCC(=O)NC(C)c2ccc(-n3ccnc3)cc2)cc(OC)c1OC` (stereo not given) the lipid storage change, negative = inhibition was inconclusive: -27.4%.
With `O=C(CNC(c1ccccc1)c1ccccc1)Nc1ccccc1F` the Potency was inconclusive: 18.4 µM [activator, partial curve].
For `CC1(C)C2CCC(C2)C1(C)NC(=O)C[N+](C)(C)C` (stereo not given), the “lipid storage change, negative = inhibition” value was inactive: -8.8%.
With `Cc1cc([N+](=O)[O-])nn1Cc1ccc(C(=O)N/N=C/c2ccc(N(C)C)cc2)cc1` the lipid storage change, negative = inhibition was inconclusive: 8.25%.
In the case of `CCCNC(=O)CCc1c(C)nc2c(c(C)nn2-c2ccc(C)cc2)c1C`, the Potency was inconclusive: 0.13 µM [activator, full curve, poor fit].
For `O=C(NC1CCCCC1)N1CCC(n2c(=O)[nH]c3ccccc32)CC1`, the Potency was inconclusive: 0.206 µM [falling, full curve, poor fit].
For `CC(/C=C/c1ccccc1)=N\NC(=O)c1ccc2c(c1)OCCO2`, the lipid storage change, negative = inhibition was inconclusive: 23.9%.
With `O=C(NCCc1ccc(Cl)cc1Cl)c1cc([N+](=O)[O-])c[nH]c1=O` the Potency was inconclusive: 6.51 µM [falling, single point].
With `OC(c1ccc(Cl)cc1)c1nccc2ccccc12` (stereo not given) the lipid storage change, negative = inhibition was inconclusive: -9.08%.
With `CCOC(=O)N1CCN(C(=O)CSc2nc(=O)n3cc(C)ccc3n2)CC1` the “outcome” value was “inactive [at 46.1 µM]”.
With `Cc1ccc(N=C2NC(=O)/C(=C/C=C/c3ccco3)S2)cc1C` the Potency was inconclusive: 0.651 µM [falling, full curve, poor fit].
With `CCOC(=O)c1c(C)[nH]c(C(=O)COC(=O)C2CC2)c1C` the lipid storage change, negative = inhibition was “inconclusive”.
For `CCCCN(C(=O)c1nn(C)c(=O)c2ccccc12)c1c(N)n(CC(C)C)c(=O)[nH]c1=O`, the “lipid storage change, negative = inhibition” value was inactive: 6.7%.
For `CCOC(=O)CNC(=O)CSc1nc2ncc(Br)cc2[nH]1`, the Potency was inconclusive: 0.164 µM [falling, single point].
For `Cc1cc(C(=O)OCC(=O)NCc2ccc3c(c2)OCO3)c2ccccc2n1`, the lipid storage change, negative = inhibition was inconclusive: -44.5%.
In the case of `Cc1ccc(/C=C/C(=O)OCC(=O)NCc2ccccc2)o1`, the lipid storage change, negative = inhibition was “inconclusive”.
With `CCOC(=O)C1=C(C)Nc2ccccc2N/C1=N\S(=O)(=O)c1cccc(Cl)c1` the Potency was inconclusive: 6.51 µM [activator, partial curve, poor fit].
With `COc1ccc(/C=N/Nc2ccc([N+](=O)[O-])cc2)cc1O` the Potency was inconclusive: 32.6 µM [falling, single point].
With `CN(CC(=O)Nc1cccc(F)c1)C(=O)c1cc([N+](=O)[O-])ccc1N1CCOCC1` the Potency was inconclusive: 29.1 µM [falling, single point].
In the case of `O=C(Nc1ccc(Cl)cc1F)C1CC1c1ccccc1` (stereo not given), the Potency was inconclusive: 25.9 µM [activator, single point].
For `COC(=O)c1nnn(CC(=O)NC(=O)Nc2c(C)cccc2C)c1C(=O)OC`, the lipid storage change, negative = inhibition was inconclusive: 6.61%.
For `COc1ccc(CCNC(=O)CSc2ncc(C(=O)Nc3ccccc3)c(=O)n2C)cc1`, the lipid storage change, negative = inhibition was “inconclusive”.
With `CCSc1nnc(NC(=O)CSc2sc3c(O)cc(=O)[nH]c3c2C#N)s1` the lipid storage change, negative = inhibition was inconclusive: -72.5%.
For `CN1CCN(C(=O)c2ccc(S(=O)(=O)Nc3ccccc3)cc2)CC1`, the lipid storage change, negative = inhibition was inconclusive: 9.76%.
With `COc1ccc2nc(N)sc2c1` the lipid storage change, negative = inhibition was inconclusive: 41.8%.
With `COc1ccc(Br)cc1C(=O)N/N=C/c1ccc2c(c1)n(C)c(=O)n2C` the Potency was inconclusive: 0.259 µM [activator, full curve, poor fit].
With `CCOC(=O)C1(Cc2ccc(OC)cc2)CCN(C(=O)Cn2cnnn2)CC1` the lipid storage change, negative = inhibition was inconclusive: -6.64%.
For `O=C1c2ccccc2C(=O)N1CC1=CCS(=O)(=O)C1`, the lipid storage change, negative = inhibition was inconclusive: 6.13%.
In the case of `O=C(NCC1(N2CCCCC2)CCCCC1)c1ccc(NS(=O)(=O)c2ccc(F)cc2)cc1`, the lipid storage change, negative = inhibition was “inconclusive”.
With `Cc1cccc(NC(=O)CSc2nnc(NC(=O)CN3CCCCC3)s2)c1` the lipid storage change, negative = inhibition was inconclusive: 7.68%.
In the case of `Cc1ccc(NC(=O)c2ccc3ncsc3c2)cc1S(=O)(=O)N(C)C`, the lipid storage change, negative = inhibition was inconclusive: 24.1%.
For `N/C(Cc1ccc([N+](=O)[O-])cc1)=N\OC(=O)c1ccc(Br)cc1`, the Potency was active: 8.2 µM.
With `Cc1ccc(S(=O)(=O)N2CCN(C(=O)COC(=O)Cc3cccc(C(F)(F)F)c3)CC2)c(C)c1` the Potency was inconclusive: 0.92 µM [falling, full curve, poor fit].
For `Cc1ccccc1Nc1c([N+](=O)[O-])cncc1[N+](=O)[O-]`, the lipid storage change, negative = inhibition was inconclusive: -66.2%.
For `COC(=O)c1cn(NC(=O)c2cccc(OC)c2)c(=O)c2ccccc12`, the lipid storage change, negative = inhibition was inconclusive: -17.9%.
With `COc1cc(Cl)ccc1OCc1cc(C(=O)N2C[C@@H]3CCC[C@H]2C3)no1` the lipid storage change, negative = inhibition was inconclusive: 18.1%.
For `CS(=O)(=O)c1ccc(Cl)c(NC(=O)COC(=O)Cc2c[nH]c3ccccc23)c1`, the lipid storage change, negative = inhibition was inconclusive: 24.3%.
For `O=C(COc1ccc(Cl)cc1)NCc1nnc(SCC(=O)NC2CCCCC2)o1`, the lipid storage change, negative = inhibition was inconclusive: -16.8%.
In the case of `CC(=O)Nc1c(C)ccc2nsnc12`, the lipid storage change, negative = inhibition was inconclusive: 2.94%.
In the case of `O=c1c2c3c(sc2nc2n1CCCS2)CCCC3`, the lipid storage change, negative = inhibition was inconclusive: 16.7%.
With `Cc1ccc(N(C(=O)CCCC(=O)Nc2ccccn2)C(C(=O)NC2CCCC2)c2ccc(O)cc2)cc1C` (stereo not given) the “outcome” value was “inactive [at 46.1 µM]”.
In the case of `Nn1c(SCC(=O)Nc2ccc(N3CCOCC3)cc2)nnc1-c1ccccc1F`, the lipid storage change, negative = inhibition was inconclusive: -54.1%.
In the case of `COC(=O)c1c(C(=O)OC)c(-c2ccc(C)cc2)n2c1CS(=O)(=O)C2`, the Potency was inconclusive: 10.3 µM [activator, partial curve].
For `CN(C)C(=O)CSc1ccccc1C(=O)OCC(=O)NC1CC1`, the Potency was inconclusive: 8.2 µM [activator, partial curve, poor fit].
With `CS(=O)(=O)N1CCN(c2ccc(NC(=O)c3ccccc3)cc2)CC1` the lipid storage change, negative = inhibition was inconclusive: 0.866%.
With `COc1ccc(NCC(=O)N/N=C/c2ccc3c(c2)OCCO3)cc1` the Potency was inconclusive: 2.59 µM [activator, full curve, poor fit].
In the case of `CN(C)C(CNC(C(=O)Nc1ccc(F)cc1)c1ccccc1)c1ccccc1` (stereo not given), the lipid storage change, negative = inhibition was inconclusive: -51.5%.
In the case of `CC(C)(C)C(=O)NC1(C(F)(F)F)C(=O)Nc2c1c(=O)[nH]c(=O)n2Cc1ccco1` (stereo not given), the lipid storage change, negative = inhibition was inconclusive: -4.91%.
In the case of `O=C(Cc1ccc(Br)cc1)N1CCCC1`, the lipid storage change, negative = inhibition was inconclusive: -50.3%.
For `Cc1c(O)ccc2c(CN3CCN(C/C=C/c4ccccc4)CC3)cc(=O)oc12`, the lipid storage change, negative = inhibition was inconclusive: 1.79%.
With `CCn1nc(C)c(/C=N/NC(=O)c2nc3nc(C)cc(C)n3n2)c1C` the Potency was inconclusive: 7.31 µM [falling, partial curve].
For `Cc1noc(C)c1S(=O)(=O)N1CCC(C(=O)Nc2ccc(OC(F)(F)F)cc2)CC1`, the Potency was active: 18.4 µM.
With `COCCNc1cc(-c2ccccc2)nc2cc(-c3cccc(F)c3)nn12` the Potency was inconclusive: 29.1 µM [falling, single point].
With `CC(C)Oc1cccc(C(=O)C2CCCN(C(=O)c3ccc4c(c3)OCO4)C2)c1` (stereo not given) the “lipid storage change, negative = inhibition” value was inactive: -19.1%.
With `CS(=O)(=O)c1ccc(C(=O)N(Cc2ccccc2)c2ccccc2)cc1` the lipid storage change, negative = inhibition was inconclusive: 49.8%.
For `COc1cc2c(cc1OC)CN(C(=O)c1cc(S(=O)(=O)N3CCOCC3)c(Cl)cc1Cl)CC2`, the Potency was inconclusive: 16.4 µM [activator, partial curve, poor fit].
In the case of `Cc1ccccc1-c1nc(CS(=O)(=O)CC(=O)NCCCN2CCOCC2)c(C)o1`, the lipid storage change, negative = inhibition was inconclusive: 178%.
In the case of `Cc1ccsc1/C=N/NC(=S)NCCc1ccccc1`, the lipid storage change, negative = inhibition was inconclusive: 18.4%.
With `COc1ccc(C2C(C#N)=C(N)Oc3n[nH]c(C)c32)cc1Cn1cc([N+](=O)[O-])cn1` (stereo not given) the lipid storage change, negative = inhibition was inconclusive: 100%.
For `Cc1ccc(CNC(=O)c2ccc(N3CCC4(CC3)CC(c3cccc(Br)c3)=NO4)c(NC(=O)c3cccc(C)c3)c2)cc1`, the lipid storage change, negative = inhibition was inconclusive: 14.9%.
For `CCOC(=O)c1c(O)c2c([nH]c1=O)CCCC2`, the lipid storage change, negative = inhibition was inconclusive: 2.3%.
With `CCOc1cc(CNCC(C)C)c(Cl)cc1OCC(=O)Nc1ccccc1` the lipid storage change, negative = inhibition was inconclusive: 47.2% [at 0.00295 µM].
With `CCOc1cc(C2/C(=C(/O)c3ccc(OC(C)C)cc3)C(=O)C(=O)N2CCCOC)ccc1O` (stereo not given) the lipid storage change, negative = inhibition was inconclusive: 36.2%.
For `O=C(Cn1nnc2ccccc2c1=O)N[C@@H](Cc1c[nH]c2ccccc12)C(=O)O`, the Potency was inconclusive: 0.259 µM [falling, full curve].
With `Cc1nn(CCOc2cccc(Cl)c2)c(C)c1[N+](=O)[O-]` the Potency was inconclusive: 2.31 µM [rising, full curve, poor fit].
With `CC(=O)Nc1cccc(C(=O)OCC(=O)NCc2ccc(F)cc2)c1` the lipid storage change, negative = inhibition was inconclusive: -15.7%.
In the case of `Cc1ccc(OCC(=O)Nc2ccc(C(N)=O)cc2)cc1`, the Potency was inconclusive: 2.59 µM [falling, single point].
With `NC(=O)N1CC(O)CC1C(=O)Nc1ccc(Cl)c(Cl)c1` (stereo not given) the Potency was inconclusive: 29.1 µM [activator, single point].
With `Cc1ccc(NCc2nc3ccccc3n2CCOc2ccccc2)cc1` the lipid storage change, negative = inhibition was inconclusive: -4.66%.
In the case of `Cc1ccc(Nc2cc(C(=O)NCCCN3CCOCC3)c3ccccc3n2)cc1C`, the Potency was inconclusive: 0.92 µM [activator, full curve].
With `Cc1ccc(C)c(S(=O)(=O)N=Nc2c(O)[nH]c3ccccc23)c1` the lipid storage change, negative = inhibition was inconclusive: -27.1%.
With `COc1ccc(CCN2C(=O)CSC2c2ccc(F)cc2)cc1` (stereo not given) the lipid storage change, negative = inhibition was inconclusive: 45.2%.
For `O=C(CSc1cn(CC(=O)N2CCCCC2)c2ccccc12)NCC1CCCO1` (stereo not given), the lipid storage change, negative = inhibition was inconclusive: 4.03%.
